This is an account of results in PubChem BioAssay AID276 (DTP/NCI, 2004).

The assay deals with B6C3F1 mice, Lewis lung carcinoma iv, survival T/C. Description: NCI In Vivo Anticancer Drug Screen. Data for tumor model Lewis Lung Carcinoma (intravenous) in B6C3F1 mice. The note with it: T/C endpoint: median survival time, schedule: Q01DX009 (ip), higher T/C = longer survival. On the procedure:
The antitumor activity of compounds was measured in mice bearing transplantable tumors. Survival or tumor size were measured and the results are expressed as the measurement made in the treated group (T) divided by the measurement made in the vehicle treated control group (C). The tumor model used in this assay is Lewis Lung Carcinoma (intravenous) in B6C3F1 mice

[1] abbreviates: dose: 100.0 mg/kg/injection, vehicle: saline with Tween-80.
[2] abbreviates: dose: 1.0 mg/kg/injection, vehicle: saline.
[3] abbreviates: dose: 200.0 mg/kg/injection, vehicle: saline.
The mark [4] stands for this setting: dose: 400.0 mg/kg/injection, vehicle: saline.
Where [5] appears, read: dose: 25.0 mg/kg/injection, vehicle: saline.
The mark [6] stands for this setting: dose: 50.0 mg/kg/injection, vehicle: saline.
Setting [7] is: dose: 100.0 mg/kg/injection, vehicle: saline.
Where [8] appears, read: dose: 20.0 mg/kg/injection, vehicle: saline with Tween-80.
Where [9] appears, read: dose: 40.0 mg/kg/injection, vehicle: saline with Tween-80.

The list does not hold the whole screen: it is rich in T/C values a quarter to a half above the control, in often repeated tests (any T/C) and in doses without a T/C. Further doses and runs are listed elsewhere. T/C is the treated group as % of the vehicle group. Some entries give survivors of the animals treated and no T/C: the source files T/C as zero there, which appears to mark a toxic dose or a test without result, not a measured value. Some doses without a T/C left all or most animals alive at the check, yet need not have been tolerated: the source hardly ever lists a survival T/C far under the control, and the zero likely stands for such cases as well. Counts of survivors are from the toxicity check (mostly the fifth day) where no day follows; animals may have died later. Schedule codes are those of the source, read here as Q, the interval in days (D) or hours (H), X, the number of doses. Where survival is the endpoint, the PubChem record calls one and a half times the control and up active, and a quarter to a half above the control has no call in these data; cut-offs in other NCI protocols can differ.

For `O=NN(CCCl)C(=O)NC1CCC(CC2CCC(NC(=O)N(CCCl)N=O)CC2)CC1` (stereo unspecified), the T/C reads like this: (dose: 6.25 mg/kg/injection, vehicle: saline with Tween-80) 136 % of control; (dose: 12.5 mg/kg/injection, vehicle: saline with Tween-80) 136 % of control. Moreover, the survivor count is 10 of 10 under setting [1] and 10 of 10 (dose: 200.0 mg/kg/injection, vehicle: saline with Tween-80).
As to `CC1OC(OC2CC(O)(C(=O)CO)Cc3c(O)c4c(c(O)c32)C(=O)c2ccccc2C4=O)CC(N)C1O` (stereo unspecified), the T/C was 134 % of control (dose: 0.5 mg/kg/injection, vehicle: other) and 131 % of control under setting [2]. In addition, the survivor count was 10 of 10 (dose: 1.0 mg/kg/injection, vehicle: other); 10 of 10 (dose: 2.0 mg/kg/injection, vehicle: other); 10 of 10 (dose: 2.0 mg/kg/injection, vehicle: saline); 10 of 10 (dose: 2.0 mg/kg/injection, vehicle: water).
With `CCCCNC(C)C1(O)Cc2c(O)c3c(c(O)c2C(OC2CC(N)C(O)C(C)O2)C1)C(=O)c1c(OC)cccc1C3=O` (stereo unspecified), the survivor count (dose: 160.0 mg/kg/injection, vehicle: water) is recorded as 10 of 10.
Turning to `c1cc2n(n1)CCN2`, the T/C under setting [3] is 135 % of control. Also, the survivor count under setting [4] is 8 of 10.
For the molecule `CC(=O)[C@]1(O)Cc2c(O)c3c(c(O)c2[C@@H](OC2CC(N)C(O)C(C)O2)C1)C(=O)c1c(O)cccc1C3=O` (stereo partly specified), the survivor count (dose: 0.5 mg/kg/injection, vehicle: saline) is on record as 10 of 10 and the survivor count under setting [2] was 9 of 10.
Regarding `CN=S(=O)(OCCCCCOS(=O)(=NC)c1ccccc1)c1ccccc1` (stereo unspecified), the survivor count under setting [1] is reported as 5 of 10.
Take `CS(=O)(=O)CS(=O)(=O)OCCCl`: the T/C (dose: 12.5 mg/kg/injection, vehicle: saline) is 132 % of control; the T/C under setting [5] is 131 % of control; the T/C under setting [6] was 135 % of control. The survivor count reads like this: under setting [7], 10 of 10; under setting [3], 4 of 10.
In the case of `CCc1ccc(C2=C(O)C(=O)C(c3ccc(CC)cc3)=C(O)C2=O)cc1`, the survivor count is, setting by setting: (dose: 50.0 mg/kg/injection, vehicle: saline with Tween-80) 10 of 10; under setting [1], 4 of 10.
`O=NN(CCCl)C(=O)NCCCl`: the T/C was 127 % of control (dose: 2.5 mg/kg/injection, vehicle: saline with Tween-80) and 145 % of control (dose: 6.0 mg/kg/injection, vehicle: Klucel (hydroxypropylcellulose) (HPC)). For the same molecule, the survivor count by setting is: under setting [8], 10 of 10; (dose: 24.0 mg/kg/injection, vehicle: Klucel (hydroxypropylcellulose) (HPC)) 9 of 10; (dose: 24.0 mg/kg/injection, vehicle: saline + alcohol) 10 of 10; under setting [9], 9 of 10; (dose: 80.0 mg/kg/injection, vehicle: saline with Tween-80) 7 of 10.
Take `Cc1c(N)nc(C(CC(N)=O)NCC(N)C(N)=O)nc1C(=O)NC(C(=O)NC(C)C(O)C(C)C(=O)NC(C(=O)NCCc1nc(-c2nc(C(=O)NCCCNCCCc3ccccn3)cs2)cs1)C(C)O)C(OC1OC(CO)C(O)C(O)C1OC1OC(CO)C(O)C(OC(N)=O)C1O)c1cnc[nH]1` (stereo unspecified): the T/C (dose: 16.0 mg/kg/injection, vehicle: saline) is 137 % of control; the T/C (dose: 25.0 mg/kg/injection, vehicle: saline + alcohol) is 133 % of control; the T/C under setting [5] is 144 % of control. Further, for the setting “dose: 50.0 mg/kg/injection, vehicle: saline + alcohol”, the survivor count is given as 10 of 10.
As to `CN(C)c1ncnc2c1ncn2C1OC(CO)C(N)C1O` (stereo unspecified), under setting [6], the T/C is 144 % of control. Further, the survivor count is reported as 10 of 10 under setting [7] and 10 of 10 under setting [3].
On to `O=C(O)C(O)C(O)C1[O][Sb][O]C1C(=O)O` (stereo unspecified), for which the survivor count under setting [7] is 1 of 10.
Turning to `CC(C)=CC(=O)OC1C2C(C)=CC(=O)C(O)C2(C)C2C3(O)OCC24C(CC(=O)OC14)C(C)C3O` (stereo unspecified), the survivor count (dose: 4.0 mg/kg/injection, vehicle: distilled water + Tween-80) was 4 of 10.
`COc1cc2c[n+](C)c3c(c2cc1OC)Cc1cc2c(cc1-3)OCO2`: the survivor count runs as follows: (dose: 100.0 mg/kg/injection, vehicle: suspension in saline) 10 of 10; (dose: 200.0 mg/kg/injection, vehicle: suspension in saline) 2 of 10.
Consider `COc1ccc2c(c1)CCn1c(C)c(COC(=O)NC(C)C)c(COC(=O)NC(C)C)c1-2`, for which the survivor count is on record as 10 of 10 (dose: 25.0 mg/kg/injection, vehicle: distilled water + Tween-80) and 9 of 10 (dose: 50.0 mg/kg/injection, vehicle: distilled water + Tween-80).
`CC[As](=O)(O)CC`: the survivor count under setting [4] is 1 of 10.
In the case of `C(=N/NC1=NCCN1)/c1c2ccccc2c(/C=N\NC2=NCCN2)c2ccccc12`, the survivor count is, setting by setting: (dose: 6.25 mg/kg/injection, vehicle: saline) 9 of 10; under setting [6], 10 of 10.
As to `CCOC(=O)Nc1cc2c(c(N)n1)N=C(c1ccccc1)CN2`, the survivor count is on record as 1 of 10 (dose: 10.0 mg/kg/injection, vehicle: saline with Tween-80) and 0 of 10 under setting [8].
With `Nc1nc(=S)c2[nH]cnc2[nH]1`, the T/C reads like this: (dose: 0.25 mg/kg/injection, vehicle: saline) 128 % of control; under setting [2], 137 % of control. Moreover, under “dose: 4.0 mg/kg/injection, vehicle: saline”, the survivor count is 10 of 10.
`Nc1ccc(Cn2ccc3c4c(N)nc(N)nc4ccc32)cc1`: the survivor count was 10 of 10 under setting [8] and 0 of 10 under setting [9].
As to `COC(=O)Nc1nc2ccc(C3(c4ccc(F)cc4)OCCO3)cc2[nH]1`, the survivor count under setting [6] is reported as 9 of 10.
For `CC(=O)N(C)c1ccc(Nc2cc(C)[nH]c3ccc4ncnc4c23)cc1`, the survivor count by setting is: under setting [7], 10 of 10; under setting [3], 0 of 10.
As to `COc1cccc2c1C(=O)c1c(O)c3c(c(O)c1C2=O)C[C@@](O)(C(O)CO)C[C@@H]3OC1CC(N(Cc2ccccc2)Cc2ccccc2)C(O)C(C)O1` (stereo partly specified), the T/C runs as follows: (dose: 25.0 mg/kg/injection, vehicle: water) 126 % of control; (dose: 50.0 mg/kg/injection, vehicle: water) 147 % of control. The survivor count is on record as 10 of 10 (dose: 100.0 mg/kg/injection, vehicle: water); 10 of 10 (dose: 200.0 mg/kg/injection, vehicle: water); 10 of 10 (dose: 400.0 mg/kg/injection, vehicle: water).
